Assay results from patent US20090280153A1, “electrical devices, anti-scarring agents, and therapeutic compositions” (Angiotech International AG, priority 2005, published 2009).
Some entries share one result that the patent states for a list of compounds. At least one structure is not confirmed: it was looked up by name or label, or the drawing left a doubt. Some ranges recur; such a range may be that of the whole group of compounds.

Tested on: fibroblasts and/or smooth muscle cells, macrophages
Experiment: assays described herein (in vitro screening assays for anti-fibrosis agents)
Assay type: cell-based
Settings: approximately; high potency (1-100) or mid-potency (100-500) agents; read-out: IC50 range in the assays described herein
Source text: Agents which may inhibit fibrosis or gliosis may be readily identified based upon in vitro and in vivo (animal) models, such as those provided in Examples 39-52. Depending on their mechanisms, various agents may be effective in some, but not all screening assays for anti-fibrosis or anti-gliosis agents, and different agents may be effective in different screening assays. Agents which inhibit fibrosis can be identified through in vivo models including inhibition of intimal hyperplasia development in the rat balloon carotid artery model (Examples 44 and 61). The assays set forth in Examples 43 and 51 may be used to determine whether an agent is able to inhibit cell proliferation in fibroblasts and/or smooth muscle cells. In one aspect of the invention, the agent has an IC50 for inhibition of cell proliferation within a range of about 10^−6 to about 10^−10 M. In certain embodiments, the agent may have an IC50 for inhibition of cell proliferation of less than about 10,000 nM; or less than about 1000 nM; or less than about 100 nM. The assay set forth in Example 47 may be used to determine whether an agent may inhibit migration of fibroblasts and/or smooth muscle cells. In one aspect of the invention, the agent has an IC50 for inhibition of cell migration within a range of about 10^−6 to about 10^−9M. […]

| Structure (SMILES) | IC50 |
| --- | --- |
| CO[C@H]1/C=C\C=C(/C)C(=O)NC2=CC(=O)C(NCCN(C)C)=C(C[C@@H](C)C[C@H](OC)[C@H](O)[C@@H](C)/C=C(\C)[C@@H]1OC(N)=O)C2=O [17-DMAG, 17-dimethylaminoethylamino-17-demethoxy-geldanamycin] | 1 to 100 nM |
| CC(/C=C/C(=O)NO)=C\[C@@H](C)C(=O)c1ccc(N(C)C)cc1 [trichostatin A] | 1 to 100 nM |
